Reference: article PMC4608764, “The Q Motif Is Involved in DNA Binding but Not ATP Binding in ChlR1 Helicase” (PLoS ONE, 2015)
Numbering of substitutions follows the chain as printed. For some assays here: A weaker result is weaker than the reference pair of the same experiment. Protein sequences can lack the tags named with them. For some assays here: For at least one entry, the source does not settle the construct or the ends of the probe. For some assays here: At least one verdict was read from the data and is not stated in words by the source.

Experiments:
[1] = system: T1, ChlR1-Q23A (Homo sapiens); assay: EMSA; conditions: 5 mM Mg2+, no ATP, abolished in the standard range, slight binding at 96 nM, EMSA: 40 mM Tris-HCl pH 7.4, 25 mM KCl, 5 mM MgCl2, 2 mM DTT, 2% glycerol, 100 ng/uL BSA, 0.5 nM DNA, room temp 30 min, recombinant protein, residues 1-906, protein details: FLAG, label: 32P (5' end)
T1 sequence (looked up): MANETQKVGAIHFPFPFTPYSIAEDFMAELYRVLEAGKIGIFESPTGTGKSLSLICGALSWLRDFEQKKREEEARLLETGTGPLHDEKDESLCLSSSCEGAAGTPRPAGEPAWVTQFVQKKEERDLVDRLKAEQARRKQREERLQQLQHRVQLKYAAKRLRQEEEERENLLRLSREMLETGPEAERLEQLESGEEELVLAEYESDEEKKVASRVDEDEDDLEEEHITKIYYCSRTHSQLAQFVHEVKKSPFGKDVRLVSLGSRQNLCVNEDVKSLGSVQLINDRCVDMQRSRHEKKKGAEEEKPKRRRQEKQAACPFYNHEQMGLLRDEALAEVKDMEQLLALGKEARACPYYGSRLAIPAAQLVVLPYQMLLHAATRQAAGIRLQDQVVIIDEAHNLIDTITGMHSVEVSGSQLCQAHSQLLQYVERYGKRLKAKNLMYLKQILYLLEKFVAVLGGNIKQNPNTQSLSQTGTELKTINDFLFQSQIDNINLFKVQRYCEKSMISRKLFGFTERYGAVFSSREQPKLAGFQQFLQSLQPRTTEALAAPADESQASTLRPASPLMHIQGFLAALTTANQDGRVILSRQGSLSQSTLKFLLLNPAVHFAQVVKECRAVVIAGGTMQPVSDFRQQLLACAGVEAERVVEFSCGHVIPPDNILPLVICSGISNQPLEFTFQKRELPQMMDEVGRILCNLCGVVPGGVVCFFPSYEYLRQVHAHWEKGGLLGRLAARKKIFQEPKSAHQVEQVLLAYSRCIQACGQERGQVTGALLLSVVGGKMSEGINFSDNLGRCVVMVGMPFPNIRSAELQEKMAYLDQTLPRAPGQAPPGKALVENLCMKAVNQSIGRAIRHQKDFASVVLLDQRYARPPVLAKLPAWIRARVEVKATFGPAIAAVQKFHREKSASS

ChlR1-WT (Homo sapiens) = system: T2, ChlR1-WT (Homo sapiens); assay: EMSA; conditions: AMP-PNP preincubation, no stimulation of DNA binding; EMSA: 40 mM Tris-HCl pH 7.4, 25 mM KCl, 5 mM MgCl2, 2 mM DTT, 2% glycerol, 100 ng/uL BSA, no ATP, 0.5 nM DNA, room temp 30 min; recombinant protein; residues 1-906; protein details: FLAG; label: 32P (5' end)
T2 sequence (looked up): T1 sequence (looked up) with A23Q

Sequence: TTTTTTTTTTTTTTTTTTTTTTCCCAGTAAAACGACGGCCAGTGC / GCACTGGCCGTCGTTTTACGGTCGTGACTGGGAAAACCCTGGCG [Forked duplex (DC26/TSTEM25)]
- binding result [1]: binds more weakly
- binding result (ChlR1-WT (Homo sapiens)): binds
